Measured data: PubChem BioAssay AID1508588 (Peter MacCallum Cancer Centre, 2020)
In all, the deposit lists about 18,000 reagents; this is a random part of them. Of all reagents, 790 (4.4%) are marked active. 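Calls rest on a combination of fold-change classes in drug and vehicle arms, not all shown here.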 Entries without a mark were called inactive. A reagent listed more than once was tested more than once; the source does not tell the runs apart.

Purpose: 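Knock-downs boosting vemurafenib effects on melanoma cell growth or lactate release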 (primary screen)
System: human WM266.4 melanoma cells (BRAF V600 mutant)
Reagents: siRNA pool against human genes, 40 nM
Time to read-out: 96 h from transfection to read-out
Treatment: vemurafenib 300 nM (about IC25), added 48 h after transfection, for 48 h; comparison arm got DMSO vehicle only
Detection: 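Cell gain (DAPI nuclei at end minus before drug, mean of two replicates) and medium lactate by absorbance per cell, both as ratio to non-targeting siRNA, also grouped into fold-change classes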
Scale: cell gain with vemurafenib: higher = more cell gain than with non-targeting siRNA; lactate per cell with vemurafenib: higher = more lactate made per cell
Active means: 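Enhancement is called by pairing each knock-down's vehicle-arm and drug-arm fold-change classes for viability or glycolysis; which class combinations qualify is not given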
Calls: active = enhances vemurafenib effect; inactive = no enhancement seen

| gene symbol | PubChem SID | cell gain with vemurafenib | lactate per cell with vemurafenib |
| --- | --- | --- | --- |
| CCNJ (cyclin J) | SID135623981 | 0.7 | 0.56 |
| PSMD11 (proteasome 26S subunit, non-ATPase 11) | SID134315711 | 0.18 | 1 |
| CHCHD7 (coiled-coil-helix-coiled-coil-helix domain containing 7) | SID152150795 | 1.03 | 0.82 |
| CNTD1 (cyclin N-terminal domain containing 1) | SID134322265 | 0.15 | 1.34 |
| C1QTNF9 (C1q and TNF related 9) | SID135623396 | 1.11 | 0.82 |
| CPPED1 (calcineurin like phosphoesterase domain containing 1) | SID152148475 | 0.31 | 0.97 |
| ARMC1 (armadillo repeat containing 1) | SID134319829 | 0.82 | 0.48 |
| HACL1 (2-hydroxyacyl-CoA lyase 1) | SID152148562 | 0.5 | 0.55 |
| NIT1 (nitrilase 1) | SID134323769 | 0.66 | 0.77 |
| SPOCD1 (SPOC domain containing 1) | SID152154570 | 0.44 | 1.16 |
| GRB10 (growth factor receptor bound protein 10) | SID135622927 | 0.29 | 1.16 |
| CNIH1 (cornichon family member 1) | SID152155957 | -0.09 | 1.84 |
| RCL1 (RNA terminal phosphate cyclase like 1) | SID152153740 | 0.32 | 1.14 |
| SYNE1 (spectrin repeat containing nuclear envelope protein 1) | SID152147356 | 0.77 | 0.82 |
| SLC23A2 | SID134312508 | 0.64 | 0.96 |
| PRR15L (proline rich 15 like) | SID134318499 | 0.21 | 1.03 |
| CD38 (CD38 molecule) | SID135621723 | 1.24 | 0.64 |
| CPEB2 (cytoplasmic polyadenylation element binding protein 2) | SID134322979 | 0.14 | 0.94 |
| DUX5 (double homeobox 5) | SID135623867 | 0.78 | 1.1 |
| ALDH6A1 (aldehyde dehydrogenase 6 family member A1) | SID134310246 | 1.01 | 0.81 |
| STAB1 (stabilin 1) | SID135622672 | 0.63 | 1.38 |
| OPRD1 (opioid receptor delta 1) | SID152149277 | 0.3 | 1.3 |
| CATSPER1 (cation channel sperm associated 1) | SID134311550 | 0.84 | 0.74 |
| NET1 (neuroepithelial cell transforming 1) | SID152150192 | 0.34 | 1.25 |
| DES (desmin) | SID135622164 | 0.94 (active) | 0.45 |
| ST18 (ST18 C2H2C-type zinc finger transcription factor) | SID134313323 | 1.17 | 0.82 |
| NHLRC4 (NHL repeat containing 4) | SID152152337 | 0.13 | 0.72 |
| NDUFA5 (NADH:ubiquinone oxidoreductase subunit A5) | SID134316305 | 0.27 | 2.75 |
| YBX1 (Y-box binding protein 1) | SID152153637 | 0.38 (active) | 0.09 |
| PRPF3 (pre-mRNA processing factor 3) | SID134323599 | 0.12 | 1.62 |
| NRXN2 (neurexin 2) | SID134317155 | 0.57 | 0.55 |
| NPY (neuropeptide Y) | SID152153651 | 1.06 | 0.4 |
| RMDN1 (regulator of microtubule dynamics 1) | SID135624099 | 0.57 (active) | 0.14 |
| C1S (complement C1s) | SID134311223 | 0.2 | 0.42 |
| CFAP100 (cilia and flagella associated protein 100) | SID134322516 | 0.91 | 0.75 |
| GREM1 (gremlin 1, DAN family BMP antagonist) | SID152151693 | 0.7 | 0.72 |
| PROK1 (prokineticin 1) | SID152147335 | 0.4 | 1.92 |
| MBNL2 (muscleblind like splicing regulator 2) | SID134329667 | 0.76 | 0.78 |
| TOR1AIP1 (torsin 1A interacting protein 1) | SID134318109 | 0.58 | 0.57 |
| KNCN (kinocilin) | SID152150589 | 0.16 | 2.86 |
| U2AF1L4 (U2 small nuclear RNA auxiliary factor 1 like 4) | SID152150418 | 0.35 | 0.84 |
| ZNF630 (zinc finger protein 630) | SID135624468 | -0.12 (active) | -0.06 |
| BRSK1 (BR serine/threonine kinase 1) | SID135620852 | 0.72 | 1.6 |
| BRSK1 (BR serine/threonine kinase 1) | SID135620852 | 0.69 | 1.82 |
| TWF2 (twinfilin actin binding protein 2) | SID56478547 | 0.79 | 0.74 |
| GRM3 (glutamate metabotropic receptor 3) | SID134311058 | 0.85 | 0.55 |
| HAUS3 (HAUS augmin like complex subunit 3) | SID152152343 | 0.38 | 0.94 |
| SAA4 (serum amyloid A4, constitutive) | SID135622389 | 0.7 | 0.6 |
| UBE4B (ubiquitination factor E4B) | SID152155900 | 0.97 | 0.56 |
| DECR2 (2,4-dienoyl-CoA reductase 2) | SID152147777 | 0.91 | 0.96 |
| PER3 (period circadian regulator 3) | SID135622144 | 1.14 | 0.62 |
| DLGAP3 (DLG associated protein 3) | SID152152891 | 0.48 | 0.92 |
| MIP (major intrinsic protein of lens fiber) | SID152153939 | 1.28 | 0.32 |
| UBR3 (ubiquitin protein ligase E3 component n-recognin 3) | SID152147145 | 0.59 | 1.19 |
| MMP15 (matrix metallopeptidase 15) | SID134311381 | 0.23 | 1.06 |
| ZNF280C (zinc finger protein 280C) | SID134312136 | 0.36 | 0.86 |
| GFRAL (GDNF family receptor alpha like) | SID152147680 | 0.56 | 0.31 |
| TMED4 (transmembrane p24 trafficking protein 4) | SID135621469 | 0.11 | 1.4 |
| RGS13 (regulator of G protein signaling 13) | SID135621928 | 0.59 | 0.38 |
| DYRK2 (dual specificity tyrosine phosphorylation regulated kinase 2) | SID152156553 | 0.53 | 1.19 |
| SEC23IP (SEC23 interacting protein) | SID134316646 | 0.98 | 1.04 |
| EEF1AKMT1 (EEF1A lysine methyltransferase 1) | SID135623406 | 0.17 | 1.98 |
| JDP2 (Jun dimerization protein 2) | SID152147626 | 0.38 | 1.58 |
| SLAMF9 (SLAM family member 9) | SID152152951 | 0.92 | 0.9 |
| TSEN34 (tRNA splicing endonuclease subunit 34) | SID152148220 | 0.37 | 0.8 |
| CD8B (CD8 subunit beta) | SID152156540 | 0.53 | 1.07 |
| PLA2G4F (phospholipase A2 group IVF) | SID135621917 | 0.86 | 1.25 |
| WASHC3 (WASH complex subunit 3) | SID152155860 | 0.46 | 1.52 |
| USP16 (ubiquitin specific peptidase 16) | SID152147818 | 0.44 | 0.8 |
| ZRANB3 (zinc finger RANBP2-type containing 3) | SID152155182 | 0.98 | 0.6 |
| SMYD4 (SET and MYND domain containing 4) | SID152149249 | 0.58 | 0.51 |
| TPSG1 (tryptase gamma 1) | SID135621134 | 1.41 | 0.4 |
| EPC2 (enhancer of polycomb 2) | SID134320753 | 0.3 (active) | 0.26 |
| TRIM31 (tripartite motif containing 31) | SID135621274 | 0.69 | 0.96 |
| ZNF250 (zinc finger protein 250) | SID152156011 | 0.65 | 0.67 |
| SERPINB5 (serpin family B member 5) | SID152148992 | 0.2 | 1.25 |
| SLC10A4 | SID134312427 | 0.9 | 0.44 |
| GNAI1 (G protein subunit alpha i1) | SID152153996 | 1.15 | 0.55 |
| ZNF691 (zinc finger protein 691) | SID135624089 | 0.89 | 0.73 |
| TCEAL1 (transcription elongation factor A like 1) | SID135623851 | 0.82 | 0.69 |
| LOC728919 (retired record) | SID152155559 | 0.35 | 1.73 |
| DERL2 (derlin 2) | SID152151329 | 0.06 | 2.22 |
| SGMS1 (sphingomyelin synthase 1) | SID134323262 | 0.51 | 1.29 |
| RAB26 (RAB26, member RAS oncogene family) | SID135621647 | 0.28 | 0.8 |
| TTC7B (tetratricopeptide repeat domain 7B) | SID152150532 | 0.44 | 1.16 |
| USH2A (usherin) | SID134316657 | 0.3 | 0.58 |
| GOLM2 (golgi membrane protein 2) | SID152148774 | 0.13 (active) | 0.35 |
| SRI (sorcin) | SID135623820 | 0.64 | 0.82 |
| FXR2 (FMR1 autosomal homolog 2) | SID152154676 | 0.41 | 1.6 |
| CHST15 (carbohydrate sulfotransferase 15) | SID152152619 | 0.56 | 0.43 |
| UBAP2 (ubiquitin associated protein 2) | SID134317402 | 0.33 | 2.15 |
| SPCS2P4 (signal peptidase complex subunit 2 pseudogene 4) | SID152149702 | 1.07 | 0.82 |
| LRRC47 (leucine rich repeat containing 47) | SID134315216 | 0.57 | 0.34 |
| SCRN1 (secernin 1) | SID152152569 | 0.46 | 0.76 |
| PMS1 (PMS1 homolog 1, mismatch repair system component) | SID152147694 | 0.59 | 0.66 |
| TRIM67 (tripartite motif containing 67) | SID152155154 | 1.08 | 0.82 |
| ABL1 (ABL proto-oncogene 1, non-receptor tyrosine kinase) | SID135620610 | 0.61 | 1.06 |
| KLHDC3 (kelch domain containing 3) | SID134317221 | 0.28 | 1.57 |
| PEX26 (peroxisomal biogenesis factor 26) | SID152147105 | 0.38 | 1.56 |
| H2AC12 (H2A clustered histone 12) | SID134317553 | 0.93 | 1.1 |
| HENMT1 (HEN methyltransferase 1) | SID152149838 | 0.44 | 0.96 |
| SPRED3 (sprouty related EVH1 domain containing 3) | SID135625436 | 1.37 | 0.58 |
| TBC1D15 (TBC1 domain family member 15) | SID134320210 | 0.77 | 1.4 |
| DST (dystonin) | SID152154870 | 0.59 | 1.14 |
| FOXD4L4 (forkhead box D4 like 4) | SID152156387 | 0.2 | 1.84 |
| PSTK (phosphoseryl-tRNA kinase) | SID134320501 | 0.56 | 0.67 |
| AMELX (amelogenin X-linked) | SID134316757 | 0.5 | 0.73 |
